Consider 14 sequences from PMC9223585, “Structural and Functional Insights into CP2c Transcription Factor Complexes” (International Journal of Molecular Sciences, 2022).

The target of data set [1] is T1, CP2c (TFCP2, LSF + homotetramer tCP2c [C4]) (UniProt Q9ERA0).
T1 sequence (looked up, limits assumed): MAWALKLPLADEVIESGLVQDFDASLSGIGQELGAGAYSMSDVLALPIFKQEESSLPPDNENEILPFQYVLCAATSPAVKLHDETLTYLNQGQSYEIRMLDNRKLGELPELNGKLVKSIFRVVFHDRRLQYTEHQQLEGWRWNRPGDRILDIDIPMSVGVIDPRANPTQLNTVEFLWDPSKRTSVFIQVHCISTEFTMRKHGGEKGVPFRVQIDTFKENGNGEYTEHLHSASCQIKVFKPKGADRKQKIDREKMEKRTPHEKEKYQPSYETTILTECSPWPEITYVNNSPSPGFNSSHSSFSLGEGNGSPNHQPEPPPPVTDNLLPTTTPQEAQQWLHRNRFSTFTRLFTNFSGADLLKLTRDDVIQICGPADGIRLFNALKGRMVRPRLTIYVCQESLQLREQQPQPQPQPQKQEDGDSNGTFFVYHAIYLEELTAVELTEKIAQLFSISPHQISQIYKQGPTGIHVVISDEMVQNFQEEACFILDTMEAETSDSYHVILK
As to the kind of experiment: DNA co-immunoprecipitation (DIP). The following applies: DIP: 4% glycerol, 10 mM Tris-HCl pH 7.4, 1 mM DTT, 1 mM EDTA, 0.1% NP-40, room temp 15 min, titration: 0-100 nM biotin dsDNA, 293T nuclear lysate, streptavidin beads, protein in a lysate after overexpression, label: 32P (Klenow fill-in).

The subject of data set [2] is CP2c (TFCP2, LSF + homotetramer tCP2c [C4]) + CP2b (in CBP complex [C2B2P2]2) + Pias1 (in CBP complex [C2B2P2]2). As to the kind of experiment: DNA co-immunoprecipitation (DIP). Conditions: DIP: 4% glycerol, 10 mM Tris-HCl pH 7.4, 1 mM DTT, 1 mM EDTA, 0.1% NP-40, room temp 15 min, titration: 0-100 nM biotin dsDNA, 293T nuclear lysate, streptavidin beads, protein in a lysate after overexpression, label: 32P (Klenow fill-in).

Data set [3] has as its target T2, CP2c endogenous (UniProt Q12800).
T2 sequence (looked up, limits assumed): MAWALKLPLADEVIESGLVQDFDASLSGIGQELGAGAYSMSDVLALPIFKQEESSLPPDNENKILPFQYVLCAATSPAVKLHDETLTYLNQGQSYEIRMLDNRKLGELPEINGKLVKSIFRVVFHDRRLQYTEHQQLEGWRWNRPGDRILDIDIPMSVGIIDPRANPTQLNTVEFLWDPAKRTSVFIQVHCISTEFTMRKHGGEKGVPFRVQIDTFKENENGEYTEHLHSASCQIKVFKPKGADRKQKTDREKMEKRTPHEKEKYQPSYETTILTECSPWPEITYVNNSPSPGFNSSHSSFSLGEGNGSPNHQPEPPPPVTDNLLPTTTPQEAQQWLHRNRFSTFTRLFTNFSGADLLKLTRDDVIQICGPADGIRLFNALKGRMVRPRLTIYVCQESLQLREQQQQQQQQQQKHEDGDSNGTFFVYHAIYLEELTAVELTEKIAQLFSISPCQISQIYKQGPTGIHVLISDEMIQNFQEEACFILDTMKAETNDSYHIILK
As to the kind of experiment: pull-down (DSP crosslink, Western blot). The following applies: DSP pull-down: 2 mM DSP 30 min room temp, beads overnight 4 C, protein in an extract.

Data set [4] concerns CP2c endogenous + CP2b endogenous + PIAS1 endogenous. As to the kind of experiment: pull-down (DSP crosslink, Western blot). The following applies: DSP pull-down: 2 mM DSP 30 min room temp, beads overnight 4 C, protein in an extract. Background: In western blotting, separated proteins are transferred to a membrane and probed.
For data set [5], the target named is T1, CP2c (TFCP2, LSF + homotetramer tCP2c [C4]). As to the kind of experiment: pull-down titration. Conditions: DSP pull-down: 2 mM DSP 30 min room temp, beads overnight 4 C, protein in a lysate after overexpression, label: 5' biotin both strands; for Kd: CP2c read-out; for binding result: Kd only in figure.
Data set [6] has as its system CP2c (TFCP2, LSF + homotetramer tCP2c [C4]) + CP2b (in CBP complex [C2B2P2]2) + Pias1 (in CBP complex [C2B2P2]2). As to the kind of experiment: pull-down titration. Conditions: DSP pull-down: 2 mM DSP 30 min room temp, beads overnight 4 C, protein in a lysate after overexpression, label: 5' biotin both strands.
[7] abbreviates: letters put together from the description.
Setting [8] is: label: 5' biotin, letters put together from the description.

Construct, isoform or probe ends are uncertain for at least one entry. Results from cells or extracts need not show a direct contact. For part of these data: Negatives hold for the conditions tested. For part of these data: At least one verdict was read from the data and is not stated in words by the source. For part of these data: Protein sequences can lack the tags named with them. For part of these data: A weaker result is weaker than the reference pair of the same experiment.

For “CGAGTCCATCTGATAAGACTTATCAGCAGCCCCAGATTGAGCCAGATTGAGCGTAAGCCCCAG (double strand) [Gata1 enhancer Mut2/4 (DIP)]”, the binding result in data set [1] (setting [7]) was “binds”; in data set [2] (setting [7]), “no binding”.
Turning to “CGAGTCCATCTGATAAGACTTATCTGCTGCCACAGAGCAGGTAAGAGCTGGCGTAAGCCCCAG (double strand) [Gata1 enhancer Mut1/3 (Bio)]”, the values for the binding result in data set [3] (label: 5' biotin both strands) and in data set [4] (label: 5' biotin both strands) were “binds” and “no binding”, respectively.
As to “CGAGTCCATCTGATAAGACTTATCTGCTGCCCCAGAGCAGGCCAGAGCTGGCGTAAGCCCCAG (double strand) [Gata1 enhancer WT (Bio)]”, the dissociation constant Kd (commonly the constant that tells how readily two partners part at equilibrium) is 9.56 nM in data set [5] (CP2b and Pias1 co-expressed); 14.1 nM in data set [6] (CP2b read-out); 14.2 nM in data set [6] (Pias1 read-out). Moreover, the binding result in data set [4] (label: 5' biotin both strands) is “binds”.
As for “GATCCAAAGTTTTACTCGGTAGAGCAAGCACAAACCAGG (double strand) [Hba-a2 Mut1 (Bio)]”, the Kd in data set [5] (value from range 9.53 to 10.55 for Mut 4 and Mut 1) stood at 10.6 nM. Also, the binding result in data set [4] (label: 5' biotin both strands) is on record as “binds”.
Take “GATCCAAAGTTTTACTCGGTAGAGCAAGCACAAATCAGG (double strand) [Hba-a2 Mut1/4 (Bio)]”: the binding result in data set [5] was “binds more weakly”.
As for “GATCCAAAGTTTTACTCGGTAGAGTAAGCACAAACCAGG (double strand) [Hba-a2 Mut1/3 (Bio)]”, the binding result in data set [3] (setting [8]) and in data set [4] (setting [8]) was “no binding” throughout.
On to “GATCCAAAGTTTTATTCGGTAGAGCAAGCACAAACCAGG (double strand) [Hba-a2 Mut1/2 (Bio)]”, for which the binding result in data set [5] is recorded as “binds more weakly”; in data set [3] (label: 5' biotin both strands), “binds”; in data set [4] (only CP2c found, label: 5' biotin both strands) it was “no binding”.
On to “GATCCCAAGTTTTACTCGGTAGAGCAAGCACAAACCAGG (double strand) [Hba-a2 promoter WT (Bio)]”, for which the Kd in data set [5] (CP2b and Pias1 co-expressed) was determined as 4.17 nM. For the same sequence, the binding result in data set [4] (label: 5' biotin both strands) is “binds”.
“GATCCCAAGTTTTACTCGGTAGAGCAAGCACAAATCAGG (double strand) [Hba-a2 Mut4 (Bio)]”: the equilibrium dissociation constant (Kd) was 9.53 nM in data set [5] (CP2b and Pias1 co-expressed); 15 nM in data set [6] (CP2b read-out); 15.1 nM in data set [6] (Pias1 read-out).
As for “GATCCCAAGTTTTACTCGGTAGAGTAAGCACAAATCAGG (double strand) [Hba-a2 Mut3/4 (Bio)]”, the Kd in data set [5] stood at 25.4 nM. Moreover, the binding result in data set [6] (two half-sites prevent CBP binding) is recorded as “no binding”.
For the sequence “GCTAGCCGAGTCCATCTGATAAGACTTATCTGCTGCCACAGAGCAGGTAAGAGCTGGCGTAAGCCCCAG / CTCGAGCTGGGGCTTACGCCAGCTCTTACCTGCTCTGTGGCAGCAGATAAGTCTTATCAGATGGACTCG [Gata1 enhancer Mut1/3 (DIP)]”, the binding result in data set [1] is given as “binds”; in data set [2], “no binding”.
With “GCTAGCCGAGTCCATCTGATAAGACTTATCTGCTGCCCCAGAGCAGGCCAGAGCTGGCGTAAGCCCCAG / CTCGAGCTGGGGCTTACGCCAGCTCTGGCCTGCTCTGGGGCAGCAGATAAGTCTTATCAGATGGACTCG [Gata1 enhancer WT (DIP)]”, in data set [2], the binding result is recorded as “binds”.
For the sequence “GCTAGCGATCCAAAGTTTTACTCGGTAGAGTAAGCACAAACCAGG / CTCGAGCCTGGTTTGTGCTTACTCTACCGAGTAAAACTTTGGATC [Hba-a2 Mut1/3 (DIP)]”, the binding result in data set [1] (no two consecutive half-sites) and in data set [2] was “no binding” throughout.
As for “GCTAGCGATCCCAAGTTTTACTCGGTAGAGCAAGCACAAACCAGG / CTCGAGCCTGGTTTGTGCTTGCTCTACCGAGTAAAACTTGGGATC [Hba-a2 promoter WT (DIP)]”, the binding result in data set [1] (CP2c alone) and in data set [2] was “binds” each time.
